In publication PMC3250450:
Construct, isoform or probe ends are uncertain for at least one entry. Where cells or extracts were used, other partners may take part. For some assays here: No signal at the amounts used counts as a negative.

Sequences of proteins named here, by UniProt entry; tags and fusion partners are left off. A change or cut given only in a name is not applied to a line headed by its entry.
UniProt P15976: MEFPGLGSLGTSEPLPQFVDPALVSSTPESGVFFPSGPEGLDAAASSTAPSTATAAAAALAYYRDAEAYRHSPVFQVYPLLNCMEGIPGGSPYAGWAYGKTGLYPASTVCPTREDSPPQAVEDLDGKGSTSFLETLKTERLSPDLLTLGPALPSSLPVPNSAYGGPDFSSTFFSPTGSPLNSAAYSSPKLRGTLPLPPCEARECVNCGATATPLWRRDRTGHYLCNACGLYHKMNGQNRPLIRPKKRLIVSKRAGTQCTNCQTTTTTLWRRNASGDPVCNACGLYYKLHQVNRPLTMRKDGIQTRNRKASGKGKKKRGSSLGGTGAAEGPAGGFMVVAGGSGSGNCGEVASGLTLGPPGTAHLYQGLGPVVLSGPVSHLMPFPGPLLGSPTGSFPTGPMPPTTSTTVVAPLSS

Assays:
GATA-1 [1] = molecular target: GATA-1 (UniProt P15976); assay: EMSA; conditions: LightShift Chemiluminescent EMSA Kit (Pierce) per manufacturer, K562 nuclear extract, 6% nondenaturing PAGE, pH and temperature not stated, protein in an extract, label: 3' biotin (both strands)
GATA-1 [2] = molecular target: GATA-1 (UniProt P15976); assay: competition with a labelled probe; conditions: LightShift Chemiluminescent EMSA Kit (Pierce) per manufacturer, K562 nuclear extract, 6% nondenaturing PAGE, pH and temperature not stated, protein in an extract, label: 3' biotin (both strands), unlabeled as competitor
GATA-1 [3] = molecular target: GATA-1 (UniProt P15976); assay: EMSA supershift; conditions: anti-GATA-1 antibody; LightShift Chemiluminescent EMSA Kit (Pierce) per manufacturer; K562 nuclear extract; 6% nondenaturing PAGE; pH and temperature not …; protein in an extract; label: 3' biotin (both strands), unlabeled as competitor

Sequence | binding result (GATA-1 [1]) | further results
AGTGTGGGATGATAGACAATGAAGA (double strand) [G6] | no binding | 
CTAACAAAACTATCCCTTGTTCGAC (double strand) [G9] | no binding | 
AAAGAGATAGGCGAGTACATCAGTC (double strand) [G1-m] |  | binding result (GATA-1 [1]; unlabeled as competitor): no binding; binding result (GATA-1 [2]; 200-fold unlabeled G1-m against labeled G1): no binding
TGTTACTGAGTATCTACCCAAAGGA (double strand) [G3] | no binding | 
TGTTCGACTTGTATCTTTATATACT (double strand) [G10] | no binding | 
TTGTTCCTCAGATAGCGTTCATCGC (double strand) [G11] | no binding | 
CTCATATGTTTATCACAGCACTATT (double strand) [G4] | no binding | 
TAGTGGCCACTATCTTCAGTGAAAC (double strand) [G5] | no binding | 
AGAAAACTTGTATCTGCCTCTGTGA (double strand) [G7] | no binding | 
ATTACCATTTGATAAAGCAATCCTG (double strand) [G2] | no binding | 
AATCATGCGTGATAAAAGAATCCAT (double strand) [G8] | no binding | 
AAAGAGATATTATCTTACATCAGTC (double strand) [G1] |  | binding result (GATA-1 [3]): binds; binding result (GATA-1 [2]; 200-fold unlabeled G1 competes labeled G1): binds
